Experimental data as given in the supplement of paper PMC10849652.
The other results are listed elsewhere or left out.

Protein sequences, listed by entry. Tags and fused reporters are not part of them. Lines headed by an entry give the natural chain unless they say otherwise; changes in a name come on top.
UniProt Q96SZ6: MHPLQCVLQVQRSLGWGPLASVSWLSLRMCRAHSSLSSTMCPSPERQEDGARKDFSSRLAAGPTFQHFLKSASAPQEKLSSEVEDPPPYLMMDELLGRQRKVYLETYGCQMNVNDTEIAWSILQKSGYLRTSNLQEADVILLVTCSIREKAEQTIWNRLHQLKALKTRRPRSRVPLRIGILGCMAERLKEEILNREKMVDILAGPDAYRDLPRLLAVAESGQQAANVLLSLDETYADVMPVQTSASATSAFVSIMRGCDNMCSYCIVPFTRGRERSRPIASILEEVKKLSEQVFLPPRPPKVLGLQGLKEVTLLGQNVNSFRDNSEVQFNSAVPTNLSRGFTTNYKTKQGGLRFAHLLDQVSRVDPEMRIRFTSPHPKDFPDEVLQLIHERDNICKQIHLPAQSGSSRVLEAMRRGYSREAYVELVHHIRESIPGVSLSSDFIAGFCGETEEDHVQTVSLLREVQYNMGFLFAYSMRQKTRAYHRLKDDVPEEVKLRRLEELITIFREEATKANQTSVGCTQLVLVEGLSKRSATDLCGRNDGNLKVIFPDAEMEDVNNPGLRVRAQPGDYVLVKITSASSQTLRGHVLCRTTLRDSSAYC
UniProt P06493, whole entry, looked up: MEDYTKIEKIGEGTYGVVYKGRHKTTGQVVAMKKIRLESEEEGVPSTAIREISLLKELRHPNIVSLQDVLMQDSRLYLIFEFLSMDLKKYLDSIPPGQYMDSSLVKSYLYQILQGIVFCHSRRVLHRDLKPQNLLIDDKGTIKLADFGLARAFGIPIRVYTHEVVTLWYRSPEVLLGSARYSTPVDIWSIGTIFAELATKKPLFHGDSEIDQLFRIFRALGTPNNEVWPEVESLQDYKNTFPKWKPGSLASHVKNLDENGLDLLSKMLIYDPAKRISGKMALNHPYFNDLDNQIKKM
UniProt Q9NXV6: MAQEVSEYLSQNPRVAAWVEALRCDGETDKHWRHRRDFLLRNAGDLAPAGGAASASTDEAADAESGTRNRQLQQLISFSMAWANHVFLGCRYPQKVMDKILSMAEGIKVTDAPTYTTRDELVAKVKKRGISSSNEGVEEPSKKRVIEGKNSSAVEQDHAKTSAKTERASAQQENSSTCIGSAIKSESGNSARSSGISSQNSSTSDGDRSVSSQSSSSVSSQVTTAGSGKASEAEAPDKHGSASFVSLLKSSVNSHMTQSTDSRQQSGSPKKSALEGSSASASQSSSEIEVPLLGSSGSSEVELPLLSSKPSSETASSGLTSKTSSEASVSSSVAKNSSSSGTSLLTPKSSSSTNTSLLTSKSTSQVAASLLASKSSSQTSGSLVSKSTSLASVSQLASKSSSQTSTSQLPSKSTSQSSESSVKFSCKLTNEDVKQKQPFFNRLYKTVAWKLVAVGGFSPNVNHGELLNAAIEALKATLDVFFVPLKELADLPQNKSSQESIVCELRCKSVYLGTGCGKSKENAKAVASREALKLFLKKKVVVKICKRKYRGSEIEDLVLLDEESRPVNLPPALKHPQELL
UniProt Q5VT25: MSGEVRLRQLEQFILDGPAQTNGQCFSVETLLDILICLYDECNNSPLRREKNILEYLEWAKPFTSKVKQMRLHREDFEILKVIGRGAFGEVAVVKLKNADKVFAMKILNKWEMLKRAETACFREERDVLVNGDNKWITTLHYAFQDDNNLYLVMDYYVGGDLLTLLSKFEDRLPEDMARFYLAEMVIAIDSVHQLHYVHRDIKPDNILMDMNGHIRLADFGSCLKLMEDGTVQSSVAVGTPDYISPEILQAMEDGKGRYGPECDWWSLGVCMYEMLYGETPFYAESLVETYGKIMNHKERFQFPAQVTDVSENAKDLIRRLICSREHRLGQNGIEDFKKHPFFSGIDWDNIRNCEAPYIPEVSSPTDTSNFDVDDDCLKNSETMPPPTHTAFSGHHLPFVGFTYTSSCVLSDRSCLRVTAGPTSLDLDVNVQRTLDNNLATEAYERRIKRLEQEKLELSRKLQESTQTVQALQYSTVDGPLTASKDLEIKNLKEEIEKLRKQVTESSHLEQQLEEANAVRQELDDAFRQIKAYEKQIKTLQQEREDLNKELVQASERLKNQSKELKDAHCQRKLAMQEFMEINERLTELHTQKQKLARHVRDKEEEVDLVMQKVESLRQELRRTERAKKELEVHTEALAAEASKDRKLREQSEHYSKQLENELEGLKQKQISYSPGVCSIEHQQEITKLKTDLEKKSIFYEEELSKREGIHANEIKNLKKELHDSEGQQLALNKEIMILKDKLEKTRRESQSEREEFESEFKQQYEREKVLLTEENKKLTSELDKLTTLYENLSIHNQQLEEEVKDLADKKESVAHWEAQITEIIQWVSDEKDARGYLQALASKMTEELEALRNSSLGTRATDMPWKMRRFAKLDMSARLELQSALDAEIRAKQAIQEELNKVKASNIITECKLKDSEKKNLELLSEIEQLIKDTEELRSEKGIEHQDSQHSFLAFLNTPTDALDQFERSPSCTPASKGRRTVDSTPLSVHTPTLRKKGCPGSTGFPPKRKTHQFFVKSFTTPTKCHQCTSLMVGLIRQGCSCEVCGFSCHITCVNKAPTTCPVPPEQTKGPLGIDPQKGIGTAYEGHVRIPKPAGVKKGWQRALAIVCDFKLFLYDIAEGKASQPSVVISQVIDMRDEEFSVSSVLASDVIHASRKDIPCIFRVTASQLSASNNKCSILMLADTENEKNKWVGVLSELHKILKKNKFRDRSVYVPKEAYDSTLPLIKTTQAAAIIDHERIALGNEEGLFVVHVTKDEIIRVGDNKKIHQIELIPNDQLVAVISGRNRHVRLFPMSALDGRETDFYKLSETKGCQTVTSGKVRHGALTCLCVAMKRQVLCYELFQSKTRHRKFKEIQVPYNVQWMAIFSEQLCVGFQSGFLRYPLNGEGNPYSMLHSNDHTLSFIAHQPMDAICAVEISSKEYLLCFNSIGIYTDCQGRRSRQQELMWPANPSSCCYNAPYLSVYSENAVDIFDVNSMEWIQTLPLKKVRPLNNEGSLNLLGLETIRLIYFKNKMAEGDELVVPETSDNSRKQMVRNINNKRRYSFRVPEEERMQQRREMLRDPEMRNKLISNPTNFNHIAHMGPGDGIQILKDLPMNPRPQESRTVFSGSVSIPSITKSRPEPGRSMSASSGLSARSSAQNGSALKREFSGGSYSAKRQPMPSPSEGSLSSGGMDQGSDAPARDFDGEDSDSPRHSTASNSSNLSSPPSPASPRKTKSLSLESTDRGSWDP
UniProt Q9H3R5: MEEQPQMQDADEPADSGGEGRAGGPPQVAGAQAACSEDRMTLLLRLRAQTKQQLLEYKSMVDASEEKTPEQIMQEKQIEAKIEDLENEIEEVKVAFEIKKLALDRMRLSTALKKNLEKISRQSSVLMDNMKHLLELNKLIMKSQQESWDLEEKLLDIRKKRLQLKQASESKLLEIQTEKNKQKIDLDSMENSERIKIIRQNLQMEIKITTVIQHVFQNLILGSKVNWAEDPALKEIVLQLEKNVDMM
UniProt O00748: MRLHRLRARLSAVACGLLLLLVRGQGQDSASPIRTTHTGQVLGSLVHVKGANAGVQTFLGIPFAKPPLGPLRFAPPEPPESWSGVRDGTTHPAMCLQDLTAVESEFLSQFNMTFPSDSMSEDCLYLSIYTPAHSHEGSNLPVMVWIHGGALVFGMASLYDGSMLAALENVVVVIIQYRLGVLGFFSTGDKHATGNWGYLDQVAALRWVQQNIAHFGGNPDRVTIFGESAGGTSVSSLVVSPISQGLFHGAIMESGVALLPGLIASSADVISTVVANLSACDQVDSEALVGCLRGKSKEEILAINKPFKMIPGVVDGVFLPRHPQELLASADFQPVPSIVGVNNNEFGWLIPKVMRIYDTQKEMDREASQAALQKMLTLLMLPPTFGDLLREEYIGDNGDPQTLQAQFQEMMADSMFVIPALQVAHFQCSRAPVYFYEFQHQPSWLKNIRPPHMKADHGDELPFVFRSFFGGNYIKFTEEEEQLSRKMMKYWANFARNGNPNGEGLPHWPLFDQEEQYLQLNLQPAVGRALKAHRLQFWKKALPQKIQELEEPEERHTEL
UniProt Q9NRR8: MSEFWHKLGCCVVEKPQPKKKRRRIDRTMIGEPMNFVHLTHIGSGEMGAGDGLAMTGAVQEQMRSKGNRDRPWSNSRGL
UniProt Q9BV73: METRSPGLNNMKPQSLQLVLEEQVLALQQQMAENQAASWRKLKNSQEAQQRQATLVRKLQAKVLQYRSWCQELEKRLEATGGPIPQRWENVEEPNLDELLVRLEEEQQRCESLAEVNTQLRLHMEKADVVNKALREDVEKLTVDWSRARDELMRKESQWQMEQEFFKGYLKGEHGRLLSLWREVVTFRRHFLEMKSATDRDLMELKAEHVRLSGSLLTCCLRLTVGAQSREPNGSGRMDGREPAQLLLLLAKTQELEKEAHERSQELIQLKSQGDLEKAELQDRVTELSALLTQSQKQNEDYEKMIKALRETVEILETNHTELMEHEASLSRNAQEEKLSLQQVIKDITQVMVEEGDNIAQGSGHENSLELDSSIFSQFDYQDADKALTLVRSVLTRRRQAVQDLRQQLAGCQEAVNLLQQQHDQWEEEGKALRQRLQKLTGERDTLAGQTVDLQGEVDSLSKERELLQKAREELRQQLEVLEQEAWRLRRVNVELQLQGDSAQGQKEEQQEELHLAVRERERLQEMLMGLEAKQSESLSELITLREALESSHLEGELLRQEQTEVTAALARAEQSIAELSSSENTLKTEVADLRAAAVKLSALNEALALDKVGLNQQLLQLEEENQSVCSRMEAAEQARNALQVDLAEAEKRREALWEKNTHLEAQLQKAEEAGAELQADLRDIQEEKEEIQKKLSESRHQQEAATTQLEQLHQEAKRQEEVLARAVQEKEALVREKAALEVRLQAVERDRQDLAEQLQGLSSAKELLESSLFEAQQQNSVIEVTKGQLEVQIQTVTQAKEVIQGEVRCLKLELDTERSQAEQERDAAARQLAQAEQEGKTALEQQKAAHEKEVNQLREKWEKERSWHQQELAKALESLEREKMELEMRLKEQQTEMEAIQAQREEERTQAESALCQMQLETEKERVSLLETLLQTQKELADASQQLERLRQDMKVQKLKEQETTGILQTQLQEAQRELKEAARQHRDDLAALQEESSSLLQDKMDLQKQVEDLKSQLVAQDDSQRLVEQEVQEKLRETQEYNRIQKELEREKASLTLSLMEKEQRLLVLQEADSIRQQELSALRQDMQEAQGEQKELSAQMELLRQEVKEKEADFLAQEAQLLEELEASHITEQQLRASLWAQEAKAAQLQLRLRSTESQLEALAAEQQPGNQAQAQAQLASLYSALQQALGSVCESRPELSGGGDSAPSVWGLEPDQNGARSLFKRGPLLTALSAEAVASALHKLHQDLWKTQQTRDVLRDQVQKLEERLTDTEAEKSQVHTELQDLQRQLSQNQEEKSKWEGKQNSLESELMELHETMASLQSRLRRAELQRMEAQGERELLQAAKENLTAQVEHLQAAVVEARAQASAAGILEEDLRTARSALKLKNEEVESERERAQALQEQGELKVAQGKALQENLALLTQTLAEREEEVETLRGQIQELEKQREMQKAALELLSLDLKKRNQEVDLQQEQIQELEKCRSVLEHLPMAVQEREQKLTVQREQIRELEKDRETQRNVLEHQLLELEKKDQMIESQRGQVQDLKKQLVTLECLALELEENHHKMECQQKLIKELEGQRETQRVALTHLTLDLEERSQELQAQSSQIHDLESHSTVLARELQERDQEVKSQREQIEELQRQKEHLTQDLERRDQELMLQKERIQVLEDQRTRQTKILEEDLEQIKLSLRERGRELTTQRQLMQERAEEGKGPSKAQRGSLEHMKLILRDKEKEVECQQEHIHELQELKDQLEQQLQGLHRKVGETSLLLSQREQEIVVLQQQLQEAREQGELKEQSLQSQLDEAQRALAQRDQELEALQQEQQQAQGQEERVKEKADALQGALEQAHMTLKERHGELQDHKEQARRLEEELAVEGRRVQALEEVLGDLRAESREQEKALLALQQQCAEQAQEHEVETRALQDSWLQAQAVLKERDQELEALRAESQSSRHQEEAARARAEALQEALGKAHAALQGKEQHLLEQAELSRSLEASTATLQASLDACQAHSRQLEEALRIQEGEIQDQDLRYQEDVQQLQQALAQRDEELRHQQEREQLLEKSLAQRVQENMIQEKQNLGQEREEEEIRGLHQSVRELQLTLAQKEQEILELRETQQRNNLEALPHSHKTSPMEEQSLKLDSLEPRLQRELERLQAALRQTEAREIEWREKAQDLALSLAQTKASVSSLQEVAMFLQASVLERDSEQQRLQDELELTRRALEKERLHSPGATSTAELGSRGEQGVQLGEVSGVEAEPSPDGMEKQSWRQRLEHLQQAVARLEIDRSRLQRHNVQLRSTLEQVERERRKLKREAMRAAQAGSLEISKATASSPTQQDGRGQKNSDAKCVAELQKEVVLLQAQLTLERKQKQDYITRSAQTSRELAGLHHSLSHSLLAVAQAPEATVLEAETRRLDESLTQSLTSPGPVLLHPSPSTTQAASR

Key:
Test in all cases: log2 fold change, soluble protein after heating vs DMSO (PISA); higher = thermal stabilisation; K562 cells, 10 uM, 30 min; active = over 0.2 and 3.5 SD of the protein, either way, in both replicates (recomputed)
[1] = compound: CC1=C(C=C(C=C1)NC(=O)C2=CC(=CC=C2)C(C)(C)C#N)NC3=CC4=C(C=C3)N=CN(C4=O)C
Method in brief: (§1)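 For each measurement, 10 μM compound was applied for 30 min to K562 cells at 2×10^6 cells/mL. Aliquots were heated for 3 min across 48°C-58°C, pooled, and extracted in PBS with 0.5% NP-40 at 4°C; the supernatant after 21,000xg for 90 min was soluble protein. This was quantified by TMTpro 16plex LC-MS/MS with channel sums equalised, and thermal stability was reported relative to control samples from duplicates, on a log2 fold-change scale.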

[2] = compound: CC1=C(C=C(C=C1)NC(=O)C2=CC(=CC=C2)N(C)C)NC(=O)C3=CC=C(C=C3)O
Method in brief: as §1

[3] = compound: CC1=CC=C(C=C1)SC2=C3C=C(SC3=CN=C2)C(=O)N
Method in brief: as §1

[4] = compound: CC1=NC(=CC=C1)C2=C(N=C(N2)C(C)(C)C)C3=CC4=NC=CN=C4C=C3
Method in brief: as §1

Nexturastat A = compound: CCCCN(Cc1ccc(C(=O)NO)cc1)C(=O)Nc1ccccc1 [Nexturastat A]
Method in brief: as §1

vemurafenib = compound: CCCS(=O)(=O)Nc1ccc(F)c(C(=O)c2c[nH]c3ncc(-c4ccc(Cl)cc4)cc23)c1F [vemurafenib]
Method in brief: as §1

[5] = compound: CCCS(=O)(=O)Nc1ccc(F)c(C(=O)c2c[nH]c3ncc(Cl)cc23)c1F
Method in brief: as §1

[6] = compound: CCCc1cc(C)[nH]c(=O)c1CNC(=O)c1cc(-c2ccnc(N3CCN(C)CC3)c2)cc2c1cnn2C(C)C
Method in brief: as §1

givinostat = compound: CCN(CC)Cc1ccc2cc(COC(=O)Nc3ccc(C(=O)NO)cc3)ccc2c1 [givinostat]
Method in brief: as §1

barasertib = compound: CCN(CCCOc1ccc2c(Nc3cc(CC(=O)Nc4cccc(F)c4)[nH]n3)ncnc2c1)CCOP(=O)(O)O [barasertib]
Method in brief: as §1

[7] = compound: CC[C@@H]1C(=O)N(C)c2cnc(Nc3ccc(C(=O)NC4CCN(C)CC4)cc3OC)nc2N1C1CCCC1
Method in brief: as §1

volasertib = compound: CC[C@@H]1C(=O)N(C)c2cnc(Nc3ccc(C(=O)N[C@H]4CC[C@H](N5CCN(CC6CC6)CC5)CC4)cc3OC)nc2N1C(C)C [volasertib]
Method in brief: as §1

[8] = compound: CC[C@H](C)N1C=C(C2=C(C=C(C=C21)C3=CN=C(C=C3)N4CCNCC4)C(=O)NCC5=C(C=C(NC5=O)C)C)C
Method in brief: as §1

epoxomicin = compound: CC[C@H](C)[C@@H](C(=O)N[C@@H]([C@@H](C)O)C(=O)N[C@@H](CC(C)C)C(=O)[C@]1(CO1)C)NC(=O)[C@H]([C@@H](C)CC)N(C)C(=O)C [epoxomicin]
Method in brief: as §1

[9] = compound: CCn1cc(-c2ccnc3[nH]c(-c4cccc(CN(C)C)c4)cc23)c(-c2ccc(NC(=O)N(C)C)cc2)n1
Method in brief: as §1

[10] = compound: CN(C)CC(=O)Nc1ccc2[nH]c(=O)c3ccccc3c2c1
Method in brief: as §1

[11] = compound: CN1C2=C(C3=C1C(=O)N(N=C3)CC4=CC(=CC=C4)N)SC(=C2)S(=O)C
Method in brief: as §1

[12] = compound: CN1CCC(CNc2ccc3ncc(-c4cccc(OC(F)(F)F)c4)n3n2)CC1
Method in brief: as §1

[13] = compound: CCn1c(C(=O)N(C2CC2)C2CC2)cc2c3c(ncn3C)c(Nc3cc(C)n(C)n3)nc21
Method in brief: as §1

rosiglitazone = compound: CN(CCOC1=CC=C(C=C1)C[C@H]2C(=O)NC(=O)S2)C3=CC=CC=N3 (racemic) [rosiglitazone]
Method in brief: as §1

Measured: log2 fold change

CDK5RAP1 (UniProt Q96SZ6)
active: [12] -0.254
inactive: [1] 0.014 | [2] -0.04 | [3] 0.002 | [4] 0.05 | Nexturastat A -0.065 | vemurafenib -0.007 | [5] -0.035 | [6] 0.066 | givinostat -0.166 | barasertib -0.005 | [7] -0.119 | volasertib -0.064 | [8] 0.071 | epoxomicin 0.033 | [9] -0.086 | [10] -0.006 | [11] -0.074

CDK1 (UniProt P06493)
inactive: [1] 0.017 | [2] -0.017 | [3] 0.004 | [4] 0.036 | Nexturastat A -0.015 | vemurafenib 0.029 | [5] 0.02 | [6] 0.001 | givinostat 0.048 | barasertib 0.001 | [7] -0.03 | volasertib -0.05 | [8] 0.017 | epoxomicin 0.055 | [9] 0 | [10] 0.03 | [11] 0.005 | [12] -0.108

CDKN2AIP (UniProt Q9NXV6)
inactive: [1] 0.046 | [2] -0.01 | [3] -0.076 | [4] 0.008 | Nexturastat A 0.052 | vemurafenib 0.043 | [5] -0.053 | [6] 0.023 | givinostat 0.012 | barasertib -0.017 | [7] 0.096 | volasertib 0.057 | [8] -0.001 | epoxomicin 0.095 | [9] 0.008 | [10] 0.046 | [11] 0.03 | [12] 0.094

CHEK1 (UniProt O14757)
active: volasertib -0.274
inactive: [1] -0.023 | [2] -0.013 | [3] 0.05 | [4] 0.037 | Nexturastat A -0.048 | vemurafenib 0.017 | [5] 0 | [6] -0.022 | givinostat 0.029 | barasertib 0.033 | [7] -0.137 | [8] 0.005 | epoxomicin 0.055 | [9] -0.101 | [10] 0.003 | [11] -0.029 | [12] -0.159

CHCHD6 (UniProt Q9BRQ6)
inactive: [1] 0.023 | [2] -0.039 | [3] 0.017 | [4] -0.05 | Nexturastat A 0.04 | vemurafenib -0.026 | [5] -0.085 | [6] -0.06 | givinostat 0.024 | barasertib -0.035 | volasertib -0.033 | [8] 0.009 | epoxomicin 0.041 | [13] -0.039 | [9] -0.014 | [10] 0.077 | rosiglitazone 0.297 | [11] -0.027 | [12] -0.084

CDC42BPA isoform 6 (UniProt Q5VT25)
inactive: [1] 0.151 | [2] -0.079 | [3] 0.01 | [4] -0.015 | Nexturastat A 0.123 | vemurafenib 0.004 | [5] 0.141 | [6] -0.013 | givinostat 0.051 | barasertib 0.04 | [7] -0.021 | [8] 0.053 | epoxomicin 0.001 | [9] 0 | [10] 0.042 | [11] 0.078 | [12] -0.359
active: volasertib -0.86

CERS2 (UniProt Q96G23)
active: [12] -0.46
inactive: [1] -0.02 | [2] 0.015 | [3] 0.036 | [4] 0.019 | Nexturastat A -0.083 | vemurafenib -0.018 | [5] 0.101 | [6] -0.013 | givinostat -0.038 | barasertib -0.002 | [7] -0.148 | volasertib -0.133 | [8] 0.011 | epoxomicin 0.03 | [9] -0.001 | [10] 0.001 | [11] 0.007

CETN3 (UniProt O15182)
inactive: [1] 0.001 | [2] 0.012 | [3] -0.099 | [4] -0.102 | Nexturastat A -0.01 | vemurafenib -0.056 | [5] -0.164 | [6] -0.116 | givinostat 0.008 | barasertib 0.043 | [7] 0.037 | volasertib -0.028 | [8] 0.006 | epoxomicin 0.042 | [9] -0.014 | [10] -0.043 | [11] -0.013
active: [12] -0.287

CETN2 (UniProt P41208)
inactive: [1] -0.015 | [2] -0.016 | [3] -0.146 | [4] -0.071 | Nexturastat A -0.188 | vemurafenib -0.008 | [6] -0.034 | givinostat -0.034 | barasertib -0.013 | [7] 0.149 | volasertib 0.159 | [8] -0.006 | epoxomicin -0.074 | [9] 0.065 | [10] -0.058 | [11] -0.018 | [12] 0.037
active: [5] -0.335

CHCHD2 (UniProt Q9Y6H1)
inactive: [1] 0.019 | [2] -0.037 | [3] 0.282 | [4] 0.004 | Nexturastat A -0.047 | vemurafenib -0.028 | [5] -0.019 | [6] -0.09 | givinostat -0.042 | barasertib 0.008 | [7] 0.04 | volasertib 0.103 | [8] -0.034 | epoxomicin 0.026 | [9] -0.055 | [10] -0.004 | [11] -0.058 | [12] 0.044

Quoted from above (5 entries):
CDK1 (UniProt P06493)
inactive: [1] 0.017 | [2] -0.017 | [3] 0.004 | [4] 0.036 | Nexturastat A -0.015 | vemurafenib 0.029 | [5] 0.02 | [6] 0.001 | givinostat 0.048 | barasertib 0.001 | [7] -0.03 | volasertib -0.05 | [8] 0.017 | epoxomicin 0.055 | [9] 0 | [10] 0.03 | [11] 0.005 | [12] -0.108

CDKN2AIP (UniProt Q9NXV6)
inactive: [1] 0.046 | [2] -0.01 | [3] -0.076 | [4] 0.008 | Nexturastat A 0.052 | vemurafenib 0.043 | [5] -0.053 | [6] 0.023 | givinostat 0.012 | barasertib -0.017 | [7] 0.096 | volasertib 0.057 | [8] -0.001 | epoxomicin 0.095 | [9] 0.008 | [10] 0.046 | [11] 0.03 | [12] 0.094

CHEK1 (UniProt O14757)
active: volasertib -0.274
inactive: [1] -0.023 | [2] -0.013 | [3] 0.05 | [4] 0.037 | Nexturastat A -0.048 | vemurafenib 0.017 | [5] 0 | [6] -0.022 | givinostat 0.029 | barasertib 0.033 | [7] -0.137 | [8] 0.005 | epoxomicin 0.055 | [9] -0.101 | [10] 0.003 | [11] -0.029 | [12] -0.159

CHCHD6 (UniProt Q9BRQ6)
inactive: [1] 0.023 | [2] -0.039 | [3] 0.017 | [4] -0.05 | Nexturastat A 0.04 | vemurafenib -0.026 | [5] -0.085 | [6] -0.06 | givinostat 0.024 | barasertib -0.035 | volasertib -0.033 | [8] 0.009 | epoxomicin 0.041 | [13] -0.039 | [9] -0.014 | [10] 0.077 | rosiglitazone 0.297 | [11] -0.027 | [12] -0.084

CDC42BPA isoform 6 (UniProt Q5VT25)
inactive: [1] 0.151 | [2] -0.079 | [3] 0.01 | [4] -0.015 | Nexturastat A 0.123 | vemurafenib 0.004 | [5] 0.141 | [6] -0.013 | givinostat 0.051 | barasertib 0.04 | [7] -0.021 | [8] 0.053 | epoxomicin 0.001 | [9] 0 | [10] 0.042 | [11] 0.078 | [12] -0.359
active: volasertib -0.86

(further entries)

CDC42EP1 (UniProt Q00587)
inactive: [1] -0.005 | [2] 0.034 | [3] -0.002 | [4] 0.073 | Nexturastat A 0.022 | vemurafenib 0.011 | [5] -0.022 | [6] 0.075 | givinostat 0.15 | barasertib -0.004 | [7] -0.005 | volasertib 0.058 | [8] 0.057 | epoxomicin 0.032 | [9] -0.051 | [10] -0.016 | [11] 0.039
active: [12] -0.554

CENPH (UniProt Q9H3R5)
inactive: [1] -0.072 | [2] 0.04 | [3] 0.081 | [4] 0.052 | Nexturastat A 0.142 | vemurafenib 0.115 | [5] -0.012 | [6] 0.137 | givinostat 0.03 | barasertib -0.031 | [7] -0.245 | volasertib -0.202 | [8] 0.001 | epoxomicin 0.102 | [13] -0.045 | [10] -0.175 | rosiglitazone 0.093 | [11] 0.184

CES2 isoform 4 (UniProt O00748)
inactive: [1] -0.003 | [2] -0.072 | [3] 0.005 | [4] -0.065 | Nexturastat A 0.058 | vemurafenib -0.029 | [5] -0.105 | [6] 0.003 | givinostat 0.021 | barasertib 0.022 | [7] 0.033 | volasertib 0.108 | [8] 0.1 | epoxomicin -0.168 | [9] -0.012 | [10] -0.02 | [11] 0.034 | [12] 0.054

CDK12 (UniProt Q9NYV4)
inactive: [1] 0.049 | [2] -0.001 | [3] -0.079 | [4] -0.077 | Nexturastat A 0.278 | vemurafenib -0.047 | [5] -0.002 | [6] 0.104 | givinostat 0.026 | barasertib -0.083 | [7] 0.147 | volasertib 0.237 | [8] 0.016 | epoxomicin -0.363 | [9] 0.041 | [10] -0.027 | [11] 0.392 | [12] -0.102

CHCHD4 isoform 2 (UniProt Q8N4Q1)
active: [12] 0.795
inactive: [1] 0.373 | [2] 0.001 | [3] 0.157 | [4] -0.035 | Nexturastat A -0.026 | vemurafenib -0.015 | [5] 0.412 | [6] -0.063 | givinostat 0.029 | barasertib -0.024 | [7] -0.009 | volasertib -0.125 | [8] -0.096 | epoxomicin -0.186 | [9] 0.231 | [10] -0.023 | [11] -0.107

CHERP (UniProt Q8IWX8)
inactive: [1] -0.042 | [2] -0.088 | [3] -0.053 | [4] 0.003 | Nexturastat A -0.006 | vemurafenib 0.018 | [5] 0.127 | [6] 0.075 | givinostat 0.107 | barasertib 0.055 | [7] -0.162 | [8] -0.014 | epoxomicin 0.064 | [9] 0.022 | [10] 0.041 | [11] 0.102 | [12] -0.05
active: volasertib -0.888

CDC42SE1 (UniProt Q9NRR8)
active: [7] -0.995 | volasertib -2.6
inactive: [1] 0.132 | [2] 0.059 | [3] 0.016 | [4] -0.09 | Nexturastat A -0.115 | vemurafenib -0.007 | [5] 0.051 | [6] -0.705 | givinostat -0.236 | barasertib 0.071 | [8] -0.127 | epoxomicin 0.031 | [10] 0.05 | [11] -0.074

CEP250 (UniProt Q9BV73)
inactive: [1] 0.094 | [2] -0.008 | [3] 0.069 | [4] -0.089 | Nexturastat A 0.122 | vemurafenib 0 | [5] 0.037 | [6] -0.214 | givinostat 0.066 | barasertib -0.024 | [7] 0.139 | volasertib 0.01 | [8] -0.128 | epoxomicin -0.138 | [13] -0.163 | [10] 0.078 | rosiglitazone 0.122 | [11] 0.028
